According to PMC2362126:
Results are given in words; binding and its absence hold for the method and conditions named. For some of these results: A result given as binding can be weak or reduced; the word gives no strength. For some of these results: Where a sequence is shown, tags or fusion partners need not be part of it.

Amino acid sequences for entries named in this document (tags omitted).
UniProt P61586: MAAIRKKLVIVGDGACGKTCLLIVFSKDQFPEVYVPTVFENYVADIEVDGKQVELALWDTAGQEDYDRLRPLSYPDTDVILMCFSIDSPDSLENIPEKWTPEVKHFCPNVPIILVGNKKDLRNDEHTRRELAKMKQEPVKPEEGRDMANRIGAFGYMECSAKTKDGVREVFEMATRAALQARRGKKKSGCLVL
UniProt O96390: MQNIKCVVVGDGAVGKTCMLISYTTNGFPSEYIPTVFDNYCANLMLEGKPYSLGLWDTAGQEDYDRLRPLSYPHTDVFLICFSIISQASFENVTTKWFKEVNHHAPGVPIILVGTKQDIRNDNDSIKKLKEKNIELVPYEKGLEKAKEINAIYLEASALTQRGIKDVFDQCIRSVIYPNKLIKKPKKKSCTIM
UniProt P34148: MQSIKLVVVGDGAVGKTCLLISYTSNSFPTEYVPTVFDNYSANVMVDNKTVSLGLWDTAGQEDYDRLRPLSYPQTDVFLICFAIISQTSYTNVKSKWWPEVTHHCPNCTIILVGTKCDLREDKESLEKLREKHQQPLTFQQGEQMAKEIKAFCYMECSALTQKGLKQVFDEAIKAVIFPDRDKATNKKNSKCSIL
UniProt P34149: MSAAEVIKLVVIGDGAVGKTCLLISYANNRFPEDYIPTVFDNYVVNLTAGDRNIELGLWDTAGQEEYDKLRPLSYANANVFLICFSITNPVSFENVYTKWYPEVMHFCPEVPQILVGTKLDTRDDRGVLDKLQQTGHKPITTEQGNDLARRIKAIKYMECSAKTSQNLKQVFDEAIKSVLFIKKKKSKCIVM
UniProt P19073: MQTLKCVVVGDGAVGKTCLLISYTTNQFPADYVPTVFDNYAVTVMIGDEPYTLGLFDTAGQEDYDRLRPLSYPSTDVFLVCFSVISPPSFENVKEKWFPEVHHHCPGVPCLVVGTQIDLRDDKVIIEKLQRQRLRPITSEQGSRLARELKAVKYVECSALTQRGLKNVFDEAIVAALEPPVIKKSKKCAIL
UniProt P60953: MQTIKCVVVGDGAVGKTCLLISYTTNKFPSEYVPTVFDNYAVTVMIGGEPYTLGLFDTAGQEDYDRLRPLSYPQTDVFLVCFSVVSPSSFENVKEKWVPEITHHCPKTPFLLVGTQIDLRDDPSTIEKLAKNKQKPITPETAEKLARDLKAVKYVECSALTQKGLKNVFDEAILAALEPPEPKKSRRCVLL

Experiments:
Test in all cases: two-hybrid; Matchmaker system (Clontech), Y190 yeast; RhoGDIs in pGADT7 or pACT2, Rho GTPases in pGBKT7 or pAS2-1; growth on -Trp/-Leu/-His/+3AT and colony-lift β-galactosidase assays
[1] = target: human RhoA, two-hybrid fusion in pAS2-1 (human) (UniProt P61586)
[2] = target: D. discoideum RacF1, two-hybrid fusion in pAS2-1 (D. discoideum) (UniProt O96390)
[3] = target: D. discoideum RacB, two-hybrid fusion in pAS2-1 (D. discoideum) (UniProt P34148)
[4] = target: T1, D. discoideum RacE, two-hybrid fusion in pAS2-1 (D. discoideum) (UniProt Q23862)
T1 sequence: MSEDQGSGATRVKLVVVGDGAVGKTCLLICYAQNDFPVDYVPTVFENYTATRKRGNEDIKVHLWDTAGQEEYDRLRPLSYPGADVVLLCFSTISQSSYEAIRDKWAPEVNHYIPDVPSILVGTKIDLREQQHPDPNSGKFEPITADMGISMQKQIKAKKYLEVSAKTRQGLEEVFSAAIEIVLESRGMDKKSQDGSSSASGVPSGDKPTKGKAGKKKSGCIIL

[5] = target: D. discoideum RacC, two-hybrid fusion in pAS2-1 (D. discoideum) (UniProt P34149)
[6] = target: S. cerevisiae Cdc42, two-hybrid fusion in pGBKT7 (S. cerevisiae) (UniProt P19073)
[7] = target: human Cdc42, two-hybrid fusion in pAS2-1 (human) (UniProt P60953)

binding [1]: no binding
binding [2]: no binding
binding [3]: no binding
binding [4]: no binding
binding [5]: no binding
binding [6]: no binding
binding [7]: binds
Substance: Tuber borchii RhoGDI (TbRhoGDI), two-hybrid fusion in pGADT7 (from UniProt A8TLV6)
